Measured values from paper PMC7862700.
This is a selection; strong and weak results do not stand in their true shares. At the low end of the ranking the order means little.

By UniProt entry, the sequences of proteins in these tests, tags left out. Where a name states a change or a piece, a line headed by the entry shows the natural chain unless it says otherwise.
UniProt Q01892: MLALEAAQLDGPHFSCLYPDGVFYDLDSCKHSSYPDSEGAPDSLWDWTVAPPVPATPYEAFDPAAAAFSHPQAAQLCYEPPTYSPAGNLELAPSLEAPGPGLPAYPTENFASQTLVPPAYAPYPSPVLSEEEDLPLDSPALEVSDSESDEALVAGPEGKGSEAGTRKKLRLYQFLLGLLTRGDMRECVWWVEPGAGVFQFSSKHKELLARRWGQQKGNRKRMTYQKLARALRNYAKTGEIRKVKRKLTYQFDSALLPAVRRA
UniProt P41161: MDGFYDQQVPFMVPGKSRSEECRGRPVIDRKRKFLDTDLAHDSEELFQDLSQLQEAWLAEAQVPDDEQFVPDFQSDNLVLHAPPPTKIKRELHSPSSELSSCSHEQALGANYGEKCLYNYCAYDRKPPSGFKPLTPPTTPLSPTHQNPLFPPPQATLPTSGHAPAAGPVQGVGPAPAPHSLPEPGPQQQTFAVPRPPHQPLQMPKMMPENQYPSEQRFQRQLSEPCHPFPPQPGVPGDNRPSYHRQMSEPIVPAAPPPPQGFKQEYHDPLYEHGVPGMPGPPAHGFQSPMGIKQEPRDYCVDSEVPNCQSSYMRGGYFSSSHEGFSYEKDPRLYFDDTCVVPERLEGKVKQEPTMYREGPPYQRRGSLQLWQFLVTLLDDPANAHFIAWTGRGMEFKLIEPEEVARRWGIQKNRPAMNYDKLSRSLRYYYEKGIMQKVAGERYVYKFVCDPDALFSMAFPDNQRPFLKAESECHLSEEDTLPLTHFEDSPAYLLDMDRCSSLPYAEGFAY
UniProt Q99607: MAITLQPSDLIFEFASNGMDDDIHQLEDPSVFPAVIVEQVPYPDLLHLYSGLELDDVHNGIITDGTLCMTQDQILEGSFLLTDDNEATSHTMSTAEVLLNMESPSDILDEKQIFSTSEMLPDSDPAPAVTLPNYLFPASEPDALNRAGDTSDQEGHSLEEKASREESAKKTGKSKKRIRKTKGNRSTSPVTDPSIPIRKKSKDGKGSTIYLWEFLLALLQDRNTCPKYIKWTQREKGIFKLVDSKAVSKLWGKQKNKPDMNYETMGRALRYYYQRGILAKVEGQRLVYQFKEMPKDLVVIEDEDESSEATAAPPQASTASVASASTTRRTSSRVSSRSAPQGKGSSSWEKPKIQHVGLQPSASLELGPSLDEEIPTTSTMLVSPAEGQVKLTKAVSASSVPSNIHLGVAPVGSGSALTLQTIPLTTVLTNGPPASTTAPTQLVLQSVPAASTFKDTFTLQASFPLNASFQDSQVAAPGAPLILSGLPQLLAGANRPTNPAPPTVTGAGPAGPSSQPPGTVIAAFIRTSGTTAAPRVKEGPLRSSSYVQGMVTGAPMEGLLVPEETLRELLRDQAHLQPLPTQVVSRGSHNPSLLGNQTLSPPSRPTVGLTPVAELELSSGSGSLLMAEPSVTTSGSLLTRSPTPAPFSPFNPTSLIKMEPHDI

Tests used:
Experiment in all cases: DAPPL (digital affinity profiling via proximity ligation, sequencing)
Settings in all cases: 10 mM Tris-HCl pH 7.5, 50 mM NaCl, 1 mM DTT, 4% glycerol, room temperature, 30 min; GST-TFs on glutathione beads, 16-mer random dsDNA library, 0.1% …; high values mean tight binding; double strand, one strand shown; scale: fold enrichment (6-mer frequency, TF over GST control)
FLI1 = target: T1, FLI1 (UniProt Q01543)
T1 sequence: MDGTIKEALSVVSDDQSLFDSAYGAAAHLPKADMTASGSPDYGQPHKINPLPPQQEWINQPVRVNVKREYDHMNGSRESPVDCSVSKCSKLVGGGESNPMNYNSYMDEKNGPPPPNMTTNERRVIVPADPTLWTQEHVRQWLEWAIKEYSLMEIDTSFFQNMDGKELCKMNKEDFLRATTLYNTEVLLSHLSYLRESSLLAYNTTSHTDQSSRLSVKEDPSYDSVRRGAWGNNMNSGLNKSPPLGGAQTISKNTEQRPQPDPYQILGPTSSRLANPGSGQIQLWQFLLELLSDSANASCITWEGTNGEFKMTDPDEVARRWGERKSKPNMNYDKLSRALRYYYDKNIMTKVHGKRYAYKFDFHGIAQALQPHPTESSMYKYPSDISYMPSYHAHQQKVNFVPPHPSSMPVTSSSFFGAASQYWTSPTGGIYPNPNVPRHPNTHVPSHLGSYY

EHF = target: T2, EHF (UniProt Q9NZC4)
T2 sequence: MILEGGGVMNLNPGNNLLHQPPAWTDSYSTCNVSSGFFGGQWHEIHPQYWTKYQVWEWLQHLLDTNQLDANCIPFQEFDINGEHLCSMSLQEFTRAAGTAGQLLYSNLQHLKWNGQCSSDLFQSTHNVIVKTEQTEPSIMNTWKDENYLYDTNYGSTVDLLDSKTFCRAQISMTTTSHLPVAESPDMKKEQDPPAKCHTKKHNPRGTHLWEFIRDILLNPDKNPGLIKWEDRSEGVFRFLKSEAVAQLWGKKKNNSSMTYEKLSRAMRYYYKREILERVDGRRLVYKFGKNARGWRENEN

SPIB = SPIB (UniProt Q01892)
ETV5 = ETV5 (UniProt P41161)
ELF4 = ELF4 (UniProt Q99607)
ETV2 = target: T3, ETV2 (UniProt O00321)
T3 sequence: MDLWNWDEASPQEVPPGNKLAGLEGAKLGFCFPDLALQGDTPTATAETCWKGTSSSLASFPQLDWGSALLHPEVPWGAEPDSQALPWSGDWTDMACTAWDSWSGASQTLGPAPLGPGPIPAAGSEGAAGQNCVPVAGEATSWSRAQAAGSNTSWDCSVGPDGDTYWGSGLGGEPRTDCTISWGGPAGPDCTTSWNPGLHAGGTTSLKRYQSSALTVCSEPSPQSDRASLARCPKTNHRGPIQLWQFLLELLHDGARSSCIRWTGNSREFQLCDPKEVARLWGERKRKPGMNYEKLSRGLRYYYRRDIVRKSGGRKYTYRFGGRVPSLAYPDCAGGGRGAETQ

ETV3L = target: T4, ETV3L (UniProt Q6ZN32)
T4 sequence: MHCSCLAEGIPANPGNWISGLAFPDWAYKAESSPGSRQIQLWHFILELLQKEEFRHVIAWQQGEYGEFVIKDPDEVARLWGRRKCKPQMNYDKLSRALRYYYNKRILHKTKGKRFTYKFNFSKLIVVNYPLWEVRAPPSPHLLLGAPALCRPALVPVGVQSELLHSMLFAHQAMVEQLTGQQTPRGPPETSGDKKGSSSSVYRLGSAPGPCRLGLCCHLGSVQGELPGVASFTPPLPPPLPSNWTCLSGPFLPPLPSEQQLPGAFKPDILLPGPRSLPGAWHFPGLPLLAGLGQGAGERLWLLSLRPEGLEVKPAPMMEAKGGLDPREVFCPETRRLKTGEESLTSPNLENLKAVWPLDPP

| Sequence | binding signal (FLI1) | binding signal (EHF) | binding signal (SPIB) | binding signal (ETV5) | binding signal (ELF4) | binding signal (ETV2) | binding signal (ETV3L) |
| --- | --- | --- | --- | --- | --- | --- | --- |
| GTCGAA | 0.642 | 0.607 | 0.614 | 0.654 | 0.65 | 0.643 | 0.613 |
| AGACAC | 0.765 | 0.735 | 0.758 | 0.752 | 0.754 | 0.755 | 0.804 |
| TGTGTA | 0.862 | 0.828 | 0.842 | 0.912 | 0.835 | 0.765 | 0.853 |
| AGATAG | 0.796 | 0.812 | 0.779 | 0.843 | 0.833 | 0.946 | 0.815 |
| GGGTGA | 0.622 | 0.588 | 0.581 | 0.653 | 0.633 | 0.635 | 0.614 |
| GGTACG | 0.792 | 0.854 | 0.862 | 0.784 | 0.833 | 0.806 | 0.864 |
| CTAGAG | 0.829 | 0.873 | 0.767 | 0.83 | 0.909 | 0.921 | 0.849 |
| AGGTCG | 0.53 | 0.534 | 0.522 | 0.528 | 0.532 | 0.601 | 0.529 |
| CAGGCA | 0.768 | 0.736 | 0.748 | 0.738 | 0.741 | 0.725 | 0.759 |
| GAGTTG | 0.511 | 0.454 | 0.533 | 0.492 | 0.539 | 0.517 | 0.525 |
| GGACGA | 0.608 | 0.672 | 0.64 | 0.633 | 0.61 | 0.65 | 0.664 |
| GTCCGA | 0.84 | 0.847 | 0.904 | 0.826 | 0.84 | 0.789 | 0.851 |
| GGCGCG | 0.641 | 0.721 | 0.584 | 0.637 | 0.713 | 0.608 | 0.752 |
| TGAGAG | 0.602 | 0.565 | 0.531 | 0.591 | 0.611 | 0.599 | 0.578 |
| GACGTG | 0.376 | 0.328 | 0.3 | 0.341 | 0.348 | 0.321 | 0.344 |
| GTGTAT | 0.975 | 0.978 | 0.939 | 0.971 | 0.86 | 0.806 | 0.829 |
| CAACGG | 0.925 | 0.988 | 0.991 | 0.975 | 0.991 | 0.882 | 0.955 |
| GCCACG | 0.944 | 0.949 | 0.926 | 0.879 | 0.944 | 0.827 | 0.993 |
| CCGTTG | 0.979 | 0.828 | 0.887 | 0.869 | 0.887 | 0.816 | 0.916 |
| ACGGGT | 0.837 | 0.881 | 0.758 | 0.904 | 0.883 | 0.825 | 0.796 |

| Sequence | binding signal (FLI1) | binding signal (EHF) | binding signal (SPIB) | binding signal (ETV5) | binding signal (ELF4) | binding signal (ETV2) | binding signal (ETV3L) |
| --- | --- | --- | --- | --- | --- | --- | --- |
| GAGGGT | 0.549 | 0.536 | 0.608 | 0.584 | 0.529 | 0.545 | 0.58 |
| GCAGAC | 0.697 | 0.723 | 0.723 | 0.701 | 0.695 | 0.754 | 0.644 |
| CAGAGA | 0.636 | 0.633 | 0.564 | 0.644 | 0.636 | 0.657 | 0.643 |
| AGCCGG | 0.612 | 0.595 | 0.648 | 0.623 | 0.533 | 0.536 | 0.548 |
| GGAGTC | 0.232 | 0.235 | 0.222 | 0.234 | 0.215 | 0.241 | 0.242 |
| GGCGTA | 0.649 | 0.666 | 0.664 | 0.596 | 0.595 | 0.653 | 0.661 |
| GAGACA | 0.356 | 0.385 | 0.376 | 0.394 | 0.387 | 0.431 | 0.364 |
| GGTGTC | 0.757 | 0.711 | 0.83 | 0.819 | 0.847 | 0.834 | 0.802 |
| GATCGC | 0.946 | 0.894 | 0.788 | 0.887 | 0.911 | 0.978 | 0.849 |
| TAGTGA | 0.551 | 0.569 | 0.57 | 0.544 | 0.585 | 0.475 | 0.598 |
| ACTGAG | 0.752 | 0.768 | 0.721 | 0.738 | 0.743 | 0.782 | 0.807 |
| AGTCAT | 0.558 | 0.597 | 0.543 | 0.581 | 0.575 | 0.609 | 0.601 |
| CATGTG | 0.78 | 0.818 | 0.907 | 0.85 | 0.819 | 0.934 | 0.933 |
| CAGCGG | 0.445 | 0.449 | 0.458 | 0.435 | 0.481 | 0.506 | 0.464 |
| GGGTAA | 0.871 | 0.895 | 0.822 | 0.874 | 0.891 | 0.8 | 0.836 |
| GCGTAA | 0.886 | 0.91 | 0.95 | 0.841 | 0.897 | 0.857 | 0.886 |
| GTACGT | 0.845 | 0.873 | 0.893 | 0.881 | 0.881 | 0.831 | 0.912 |
| AGTGGG | 0.533 | 0.638 | 0.592 | 0.608 | 0.552 | 0.6 | 0.604 |
| GGGGTA | 0.746 | 0.719 | 0.801 | 0.726 | 0.735 | 0.648 | 0.681 |
| GGGTTG | 0.877 | 0.886 | 0.78 | 0.862 | 0.836 | 0.765 | 0.884 |

| Sequence | binding signal (FLI1) | binding signal (EHF) | binding signal (SPIB) | binding signal (ETV5) | binding signal (ELF4) | binding signal (ETV2) | binding signal (ETV3L) |
| --- | --- | --- | --- | --- | --- | --- | --- |
| CGTGGC | 0.83 | 0.803 | 0.946 | 0.799 | 0.876 | 0.908 | 0.931 |
| GACGTA | 0.783 | 0.699 | 0.642 | 0.731 | 0.761 | 0.841 | 0.684 |
| ACGCAA | 0.862 | 0.896 | 0.915 | 0.92 | 0.925 | 0.871 | 0.844 |
| GTCGTG | 0.425 | 0.408 | 0.343 | 0.394 | 0.357 | 0.383 | 0.46 |
| GGCCGC | 0.808 | 0.736 | 0.855 | 0.831 | 0.847 | 0.758 | 0.785 |
| TGTAGG | 0.794 | 0.797 | 0.809 | 0.812 | 0.788 | 0.937 | 0.797 |
| CGGGAG | 0.197 | 0.203 | 0.204 | 0.203 | 0.183 | 0.201 | 0.213 |
| CCCAGT | 0.641 | 0.657 | 0.667 | 0.698 | 0.618 | 0.641 | 0.673 |
| GGGCCC | 0.796 | 0.775 | 0.862 | 0.808 | 0.832 | 0.866 | 0.76 |
| CATGTC | 0.861 | 0.791 | 0.811 | 0.793 | 0.852 | 0.821 | 0.798 |
| AGCAAG | 0.859 | 0.811 | 0.918 | 0.892 | 0.895 | 1.02 | 0.947 |
| CGGTCG | 0.385 | 0.46 | 0.42 | 0.372 | 0.402 | 0.362 | 0.385 |
| ACACGT | 0.743 | 0.806 | 0.746 | 0.844 | 0.806 | 0.756 | 0.791 |
| AAGACC | 0.845 | 0.847 | 0.805 | 0.855 | 0.922 | 0.943 | 0.819 |
| CCCAGG | 0.705 | 0.677 | 0.75 | 0.76 | 0.761 | 0.724 | 0.73 |
| GCATTG | 0.905 | 0.797 | 0.707 | 0.823 | 0.778 | 0.921 | 0.81 |
| GATTGA | 0.976 | 0.856 | 0.925 | 0.877 | 0.989 | 0.846 | 0.941 |
| TTAGAC | 0.925 | 0.827 | 0.799 | 0.824 | 0.794 | 0.904 | 0.867 |
| GGTCAT | 0.785 | 0.792 | 0.927 | 0.818 | 0.86 | 0.793 | 0.907 |
| GTTGGG | 0.751 | 0.664 | 0.605 | 0.687 | 0.67 | 0.618 | 0.702 |

A stretch from the list above, as a working copy:

| Sequence | binding signal (FLI1) | binding signal (EHF) | binding signal (SPIB) | binding signal (ETV5) | binding signal (ELF4) | binding signal (ETV2) | binding signal (ETV3L) |
| --- | --- | --- | --- | --- | --- | --- | --- |
| GATTGA | 0.976 | 0.856 | 0.925 | 0.877 | 0.989 | 0.846 | 0.941 |
| TTAGAC | 0.925 | 0.827 | 0.799 | 0.824 | 0.794 | 0.904 | 0.867 |
| GGTCAT | 0.785 | 0.792 | 0.927 | 0.818 | 0.86 | 0.793 | 0.907 |
